Measurements reported in PubChem BioAssay AID652243 (Drosophila RNAi Screening Center, 2013)
Assay: 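Fly regulators of androgen-dependent reporter output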 (primary screen). Cell system: Drosophila S2R+ cells. Reagents: long dsRNA against Drosophila genes. Timing: 72 h (48 h, then 24 h hormone). Treatment: synthetic androgen R1881 at 10 nM for 24 h. Measurement: 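Per-well raw luminescence of the androgen-driven firefly reporter and of the Renilla control, two replicates each, without normalisation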. Scale: firefly reporter light: higher = more light from androgen-responsive reporter; Renilla control light: higher = more constitutive control signal (cell number, transfection). Rule for the call: 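Across duplicate plates, a knock-down whose log firefly/Renilla ratio shifted a set fold down or up from the GFP/LacZ control mean was a hit; the downward cut appears as both 1.5 and 3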. Calls: active = hit: reporter lowered or raised; inactive = no hit.
The screen tested about 24,000 reagents; shown is an unselected part of those with a known target gene and a result. In the full data, 246 (1%) got an active call. 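Plates not normalised; calls are printed but the firefly/Renilla ratio behind them is not deposited; fold cut for lowering reported inconsistently.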 The raw values are shown without normalisation. The numbers tell different reagents against one gene apart. A plus sign joins genes that one reagent is predicted to hit. Not stated in the record: the amount of reagent.

| target | dsRNA no. | firefly reporter light, replicate 1 | firefly reporter light, replicate 2 | Renilla control light, replicate 1 | Renilla control light, replicate 2 | Outcome |
| --- | --- | --- | --- | --- | --- | --- |
| eEF1alpha2 | 1 | 1.21e6 | 8.44e5 | 1.15e6 | 7.24e5 | inactive |
| eEF1alpha2 | 2 | 1.18e5 | 1.60e5 | 1.72e6 | 1.65e6 | inactive |
| CG12974 | 1 | 3.17e5 | 2.60e5 | 2.85e6 | 2.78e6 | inactive |
| CG7766 | 1 | 1.22e5 | 1.26e5 | 6.54e5 | 6.50e5 | inactive |
| CG14491 | 1 | 98445 | 1.14e5 | 2.64e6 | 2.64e6 | inactive |
| CG14491 | 2 | 3.50e5 | 4.47e5 | 9.99e5 | 9.99e5 | inactive |
| CG14684 | 1 | 1.98e5 | 2.14e5 | 2.38e6 | 3.03e6 | inactive |
| CG1701 | 1 | 2.96e5 | 2.31e5 | 1.42e6 | 9.55e5 | inactive |
| Asator | 1 | 2.15e5 | 2.17e5 | 2.56e6 | 2.32e6 | inactive |
| Asator | 2 | – | – | – | – | inactive |
| Asator | 3 | – | – | – | – | inactive |
| acs | 1 | 1.76e5 | 2.15e5 | 2.27e6 | 2.42e6 | inactive |
| acs | 2 | 2.60e5 | 2.83e5 | 6.21e5 | 9.34e5 | inactive |
| CG18549 | 1 | 46708 | 49952 | 6.48e5 | 5.97e5 | inactive |
| CG18549 | 2 | 4.42e5 | 4.46e5 | 1.20e6 | 1.28e6 | inactive |
| CG30098 | 1 | 1.26e5 | 1.62e5 | 3.13e5 | 3.17e5 | inactive |
| CG30098 | 2 | 3.17e5 | 3.55e5 | 9.15e5 | 7.97e5 | inactive |
| Gr36b | 1 | 7.87e5 | 5.64e5 | 1.95e6 | 1.08e6 | inactive |
| Gr36b | 2 | 5.40e5 | 4.58e5 | 1.55e6 | 1.67e6 | inactive |
| Gr36b | 3 | 8.95e5 | 6.16e5 | 1.59e6 | 1.67e6 | inactive |
| Sox100B | 1 | 1.96e5 | 1.63e5 | 2.02e6 | 2.46e6 | inactive |
| Sox100B | 2 | 1.91e5 | 3.05e5 | 7.89e5 | 5.08e5 | inactive |
| Ir51b | 1 | 78394 | 66616 | 1.78e5 | 1.42e5 | inactive |
| Obp46a | 1 | 3.23e5 | 2.60e5 | 2.48e6 | 1.99e6 | inactive |
| CG31636 | 1 | 2.05e5 | 1.98e5 | 1.57e6 | 1.37e6 | inactive |
| CG31636 | 2 | 6.65e5 | 7.72e5 | 1.27e6 | 1.30e6 | inactive |
| CG8861 | 1 | 1.18e5 | 1.16e5 | 2.12e5 | 2.62e5 | inactive |
| CG8861 | 2 | 1.41e5 | 1.83e5 | 2.58e6 | 2.80e6 | inactive |

Part of the list above, set out differently.
Ir51b → firefly reporter light, replicate 1: 78394; firefly reporter light, replicate 2: 66616; Renilla control light, replicate 1: 1.78e5; Renilla control light, replicate 2: 1.42e5; Outcome: inactive
Obp46a → firefly reporter light, replicate 1: 3.23e5; firefly reporter light, replicate 2: 2.60e5; Renilla control light, replicate 1: 2.48e6; Renilla control light, replicate 2: 1.99e6; Outcome: inactive
CG31636 #1 → firefly reporter light, replicate 1: 2.05e5; firefly reporter light, replicate 2: 1.98e5; Renilla control light, replicate 1: 1.57e6; Renilla control light, replicate 2: 1.37e6; Outcome: inactive
CG31636 #2 → firefly reporter light, replicate 1: 6.65e5; firefly reporter light, replicate 2: 7.72e5; Renilla control light, replicate 1: 1.27e6; Renilla control light, replicate 2: 1.30e6; Outcome: inactive
CG8861 #1 → firefly reporter light, replicate 1: 1.18e5; firefly reporter light, replicate 2: 1.16e5; Renilla control light, replicate 1: 2.12e5; Renilla control light, replicate 2: 2.62e5; Outcome: inactive
CG8861 #2 → firefly reporter light, replicate 1: 1.41e5; firefly reporter light, replicate 2: 1.83e5; Renilla control light, replicate 1: 2.58e6; Renilla control light, replicate 2: 2.80e6; Outcome: inactive

Next results:
| target | dsRNA no. | firefly reporter light, replicate 1 | firefly reporter light, replicate 2 | Renilla control light, replicate 1 | Renilla control light, replicate 2 | Outcome |
| --- | --- | --- | --- | --- | --- | --- |
| Acsf2 | 1 | 1.23e5 | 1.03e5 | 1.22e6 | 8.16e5 | inactive |
| Acsf2 | 2 | 1.61e5 | 1.43e5 | 4.88e5 | 4.68e5 | inactive |
| CG16978 | 1 | 2.02e5 | 2.59e5 | 1.39e6 | 1.56e6 | inactive |
| CG4278 | 1 | 8.56e5 | 1.29e6 | 1.84e6 | 1.83e6 | inactive |
| CG4586 | 1 | 1.45e5 | 1.06e5 | 1.15e6 | 5.13e5 | inactive |
| CG4743 | 1 | 1.88e5 | 1.92e5 | 1.94e6 | 1.73e6 | inactive |
| ear | 1 | 50328 | 77601 | 6.91e5 | 7.99e5 | inactive |
| ear | 2 | 4.74e5 | 5.82e5 | 4.12e5 | 5.79e5 | inactive |
| bma | 1 | 3.21e5 | 2.65e5 | 1.86e6 | 1.36e6 | inactive |
| bma | 2 | 2.48e5 | 2.09e5 | 2.74e6 | 1.76e6 | inactive |
| bma | 3 | 2.44e5 | 5.32e5 | 8.32e5 | 1.49e6 | inactive |
| bma | 4 | – | – | – | – | inactive |
| CG34331 | 1 | 1.62e5 | 1.61e5 | 5.79e5 | 4.79e5 | inactive |
| CG32812 | 1 | 2.10e5 | 2.37e5 | 2.52e6 | 2.22e6 | inactive |
| CG5335 | 1 | 1.01e6 | 8.82e5 | 2.08e6 | 1.66e6 | inactive |
| CG5335 | 2 | 3.78e5 | 3.67e5 | 4.64e5 | 4.24e5 | inactive |
| janA | 1 | 2.21e5 | 1.86e5 | 1.94e6 | 2.94e6 | inactive |
| janA | 2 | 5.75e5 | 8.28e5 | 5.83e5 | 7.05e5 | inactive |
| Dnz1 | 1 | 9.41e5 | 8.45e5 | 2.34e6 | 1.80e6 | inactive |
| Dnz1 | 2 | 5.31e5 | 5.87e5 | 4.73e5 | 6.63e5 | inactive |
| phr | 1 | 5.49e5 | 7.72e5 | 1.83e6 | 1.43e6 | inactive |
| CG32192 | 1 | 4.91e5 | 5.00e5 | 9.16e5 | 1.31e6 | inactive |
| CG32192 | 2 | 7.23e5 | 5.25e5 | 1.07e6 | 5.56e5 | inactive |
| DIP-kappa | 1 | 4.98e5 | 8.51e5 | 9.10e5 | 9.27e5 | inactive |
| DIP-kappa | 2 | 3.96e5 | 4.13e5 | 4.32e5 | 4.65e5 | inactive |
| Srp19 | 1 | 1.55e5 | 1.45e5 | 1.89e6 | 2.12e6 | inactive |
| Srp19 | 2 | 2.64e5 | 2.45e5 | 6.62e5 | 3.91e5 | inactive |
| CG30471 | 1 | 1.01e6 | 8.71e5 | 1.85e6 | 2.22e6 | inactive |
| CG13127 | 1 | 1.40e5 | 99517 | 1.26e6 | 8.98e5 | inactive |
| CG13127 | 2 | 4.90e5 | 3.91e5 | 1.80e6 | 1.69e6 | inactive |
| Mtmr6 | 1 | 3.36e5 | 2.73e5 | 2.21e6 | 1.77e6 | inactive |
| Mtmr6 | 2 | 2.58e5 | 2.44e5 | 5.67e5 | 6.09e5 | inactive |
| Mtmr6 | 3 | – | – | – | – | inactive |
| Mtmr6 | 4 | – | – | – | – | inactive |
| CG18004 | 1 | 5.64e5 | 7.37e5 | 7.29e5 | 8.22e5 | inactive |
| CG18004 | 2 | 2.88e5 | 3.28e5 | 5.59e5 | 5.19e5 | inactive |
| DENR | 1 | 62584 | 82314 | 5.08e5 | 7.74e5 | inactive |
| CG13102 + Rcd-1r | 1 | 2.10e5 | 2.61e5 | 2.25e6 | 2.03e6 | inactive |
| CG14218 | 1 | 3.50e5 | 3.30e5 | 3.08e6 | 2.90e6 | inactive |
| CG14218 | 2 | 7.53e5 | 7.75e5 | 1.34e6 | 1.37e6 | inactive |
| CG8768 | 1 | 5.78e5 | 7.34e5 | 1.66e6 | 1.70e6 | inactive |
| Sur-8 | 1 | 81431 | 59393 | 1.49e6 | 8.70e5 | inactive |
| CG43689 | 1 | 2.46e5 | 2.75e5 | 2.40e6 | 2.20e6 | inactive |
| CG43689 | 2 | 1.36e5 | 2.88e5 | 5.75e5 | 6.30e5 | inactive |
| CG43689 | 3 | 5.71e5 | 6.18e5 | 1.42e6 | 1.54e6 | inactive |
| CG43689 | 4 | 1.05e6 | 7.96e5 | 7.74e5 | 6.72e5 | inactive |
| CG43689 | 5 | 4.00e5 | 3.15e5 | 6.08e5 | 6.76e5 | inactive |
